PubChem BioAssay AID1259327 | Drosophila RNAi Screening Center, 2017
Assay: 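Knock-downs altering cellular ATP with no metal added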. Cells: Drosophila S2R+ cells. Reagent: long dsRNA against Drosophila genes. Timing: 5 days (water added on day 4, read one day later). Conditions: water added as vehicle, no metal, one day before read-out. Read-out: 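Luciferase ATP signal per well, normalised to plate mean, duplicate average converted to z-score across plates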. Reading the numbers: ATP z-score: higher = more total ATP than typical wells; ATP luminescence: higher = more total ATP. Active means: 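a hit is any knock-down whose absolute ATP z-score is greater than 1.5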. Meaning of the calls: active = hit: ATP up or down; inactive = no clear ATP change.
Shown is a random part of about 3,100 reagents tested. Of all reagents, 378 (12%) were called active. 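Hits include both directions; z-score sign shows ATP rise or fall; raw luminescence values are not plate-normalised.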 Names joined by + are all predicted targets of the reagent. The record does not give: the amount of reagent.

| gene | DRSC id | ATP z-score, duplicate mean | ATP luminescence, replicate 1 (RLU) | ATP luminescence, replicate 2 (RLU) | Call |
| --- | --- | --- | --- | --- | --- |
| Task7 | DRSC16477 | -0.766 | 2.83e5 | 6.31e5 | inactive |
| Task7 | DRSC26662 | -0.866 | 9.15e5 | 1.05e6 | inactive |
| ninaE | DRSC17014 | 0.0361 | 3.25e5 | 7.04e5 | inactive |
| ninaE | DRSC25724 | 0.491 | 8.77e5 | 9.46e5 | inactive |
| nAChRalpha6 | DRSC01096 | 1.05 | 8.95e5 | 8.17e5 | inactive |
| nAChRalpha6 | DRSC02738 | -0.198 | 4.36e5 | 4.96e5 | inactive |
| CG7970 | DRSC08605 | 0.439 | 7.09e5 | 8.49e5 | inactive |
| CG7970 | DRSC26090 | -0.375 | 7.72e5 | 8.35e5 | inactive |
| cdm | DRSC16213 | 0.439 | 7.54e5 | 7.48e5 | inactive |
| CG14232 | DRSC19588 | -0.0201 | 7.36e5 | 6.72e5 | inactive |
| CG14232 | DRSC27714 | -1.31 | 8.89e5 | 1.01e6 | inactive |
| Gr77a | DRSC11446 | -1.19 | 5.60e5 | 6.95e5 | inactive |
| Gr77a | DRSC26808 | -0.572 | 8.95e5 | 1.03e6 | inactive |
| CG14070 | DRSC02373 | -0.927 | 6.04e5 | 6.51e5 | inactive |
| Arts + Apl | DRSC10349 | 0.48 | 8.33e5 | 1.08e6 | inactive |
| unc-5 | DRSC05545 | -2.04 | 6.13e5 | 7.67e5 | active |
| unc-5 | DRSC07711 | 0.497 | 5.86e5 | 7.43e5 | inactive |
| unc-5 | DRSC07712 | 1.78 | 9.19e5 | 9.55e5 | active |
| CG31693 | DRSC03674 | -0.502 | 6.45e5 | 7.34e5 | inactive |
| CG31693 | DRSC39586 | -0.0176 | 3.88e5 | 5.43e5 | inactive |
| Hsepi | DRSC04986 | -1.44 | 5.00e5 | 4.79e5 | inactive |
| Hsepi | DRSC26089 | 0.0455 | 7.98e5 | 9.14e5 | inactive |
| ClC-c | DRSC10499 | -0.204 | 7.08e5 | 7.11e5 | inactive |
| ClC-c | DRSC39779 | -0.283 | 5.12e5 | 4.03e5 | inactive |
| yin | DRSC21889 | 0.279 | 6.33e5 | 5.73e5 | inactive |
| yin | DRSC39804 | 1.52 | 5.91e5 | 5.79e5 | active |
| Ir10a | DRSC18891 | -1.43 | 5.41e5 | 4.39e5 | inactive |
| Ir10a | DRSC19478 | -0.123 | 7.73e5 | 6.82e5 | inactive |
| Ir10a | DRSC19479 | 0.495 | 5.23e5 | 7.36e5 | inactive |
| PXo | DRSC09734 | 0.233 | 7.68e5 | 7.44e5 | inactive |
| CG4073 | DRSC15542 | 3.35 | 3.40e5 | 1.40e6 | active |
| foi | DRSC10719 | -0.397 | 8.61e5 | 8.27e5 | inactive |
| foi | DRSC29596 | -0.41 | 8.19e5 | 7.32e5 | inactive |
| CG10353 | DRSC19354 | -1.29 | 5.07e5 | 6.88e5 | inactive |
| CG10353 | DRSC29888 | 0.115 | 6.10e5 | 5.68e5 | inactive |
| Ror | DRSC03414 | 0.244 | 7.55e5 | 7.50e5 | inactive |
| Ror | DRSC36669 | -0.508 | 4.94e5 | 5.80e5 | inactive |
| Ror | DRSC36670 | 1.05 | 6.85e5 | 6.52e5 | inactive |
| eag | DRSC19067 | -1.5 | 4.66e5 | 5.02e5 | inactive |
| eag | DRSC20328 | 0.0648 | 5.42e5 | 8.04e5 | inactive |
| eag | DRSC28295 | -0.174 | 1.02e6 | 9.94e5 | inactive |
| Start1 | DRSC04384 | 0.182 | 7.49e5 | 7.51e5 | inactive |
| Start1 | DRSC28343 | -1.46 | 7.10e5 | 5.89e5 | inactive |
| Dolk | DRSC07143 | 1.27 | 7.31e5 | 7.37e5 | inactive |
| Dolk | DRSC39578 | -0.0578 | 4.63e5 | 4.59e5 | inactive |
| ppk13 | DRSC02382 | 0.345 | 7.81e5 | 7.45e5 | inactive |
| CG9459 | DRSC16496 | 0.265 | 2.93e5 | 8.37e5 | inactive |
| CG9459 | DRSC39459 | -2.1 | 3.32e5 | 2.97e5 | active |
| CG7272 | DRSC10795 | 0.02 | 9.37e5 | 8.61e5 | inactive |
| CG7272 | DRSC39569 | 3.02 | 6.87e5 | 6.53e5 | active |
| CNT2 | DRSC07073 | 0.211 | 7.69e5 | 7.37e5 | inactive |
| VhaPPA1-2 | DRSC16176 | 0.0311 | 2.97e5 | 7.74e5 | inactive |
| VhaPPA1-2 | DRSC25591 | 0.284 | 8.83e5 | 8.88e5 | inactive |
| CG42288 | DRSC06381 | 0.701 | 7.99e5 | 5.67e5 | inactive |
| Duox | DRSC00571 | -0.436 | 6.80e5 | 6.42e5 | inactive |
| Duox | DRSC27209 | 0.497 | 1.07e6 | 1.20e6 | inactive |
| Ktch | DRSC15094 | 0.965 | 6.54e5 | 7.69e5 | inactive |
| Ktch | DRSC25973 | -0.724 | 7.77e5 | 7.43e5 | inactive |
| app | DRSC09159 | -0.392 | 6.51e5 | 7.52e5 | inactive |
| app | DRSC25682 | -0.96 | 7.50e5 | 7.12e5 | inactive |
| nebu | DRSC09807 | -0.217 | 7.63e5 | 6.51e5 | inactive |
| nebu | DRSC09808 | 0.282 | 9.24e5 | 9.41e5 | inactive |
| GABA-B-R1 | DRSC22038 | 0.96 | 7.76e5 | 5.44e5 | inactive |
| GABA-B-R1 | DRSC39785 | -0.94 | 4.02e5 | 4.25e5 | inactive |
| santa-maria | DRSC00994 | -0.0311 | 6.13e5 | 8.73e5 | inactive |
| santa-maria | DRSC02180 | 0.412 | 4.43e5 | 5.77e5 | inactive |
| Or63a | DRSC08681 | -1.55 | 4.78e5 | 4.80e5 | active |
| CG10413 | DRSC02052 | 0.539 | 5.60e5 | 4.70e5 | inactive |
| Or23a | DRSC00767 | -0.979 | 5.86e5 | 6.23e5 | inactive |
| Or23a | DRSC39706 | 0.665 | 5.20e5 | 5.01e5 | inactive |
| CG1572 | DRSC19686 | 0.518 | 7.40e5 | 7.77e5 | inactive |
| Trp1 | DRSC03465 | 1.24 | 8.26e5 | 8.89e5 | inactive |
| Trp1 | DRSC24685 | 0.151 | 6.94e5 | 1.05e6 | inactive |
| CG31999 | DRSC17131 | -0.0488 | 6.24e5 | 8.94e5 | inactive |
| CG31999 | DRSC17133 | -0.0584 | 7.45e5 | 7.27e5 | inactive |
| CG4907 | DRSC15673 | 0.489 | 3.09e5 | 8.45e5 | inactive |
| CG4907 | DRSC39746 | 0.855 | 4.70e5 | 5.78e5 | inactive |
| fz3 | DRSC18779 | -0.936 | 5.05e5 | 7.33e5 | inactive |
| fz3 | DRSC29682 | 0.417 | 9.34e5 | 8.17e5 | inactive |
| sut3 | DRSC07702 | -1.7 | 4.52e5 | 4.80e5 | active |
| sut3 | DRSC24322 | -1.12 | 7.15e5 | 7.08e5 | inactive |
| Eaat1 | DRSC03321 | 1.23 | 8.44e5 | 8.69e5 | inactive |
| Eaat1 | DRSC39607 | 0.339 | 5.13e5 | 4.63e5 | inactive |
| ste24c + CG30461 | DRSC05639 | 0.0282 | 7.30e5 | 7.62e5 | inactive |
| ste24c + CG30461 | DRSC07316 | -0.49 | 5.33e5 | 6.18e5 | inactive |
| Arl6IP1 | DRSC14231 | 0.228 | 3.12e5 | 7.80e5 | inactive |
| Arl6IP1 | DRSC39486 | -2.43 | 3.19e5 | 2.66e5 | active |

No new results follow: 6 of the entries above.
| gene | DRSC id | ATP z-score, duplicate mean | ATP luminescence, replicate 1 (RLU) | ATP luminescence, replicate 2 (RLU) | Call |
| --- | --- | --- | --- | --- | --- |
| CG7272 | DRSC10795 | 0.02 | 9.37e5 | 8.61e5 | inactive |
| CG7272 | DRSC39569 | 3.02 | 6.87e5 | 6.53e5 | active |
| CNT2 | DRSC07073 | 0.211 | 7.69e5 | 7.37e5 | inactive |
| VhaPPA1-2 | DRSC16176 | 0.0311 | 2.97e5 | 7.74e5 | inactive |
| VhaPPA1-2 | DRSC25591 | 0.284 | 8.83e5 | 8.88e5 | inactive |
| CG42288 | DRSC06381 | 0.701 | 7.99e5 | 5.67e5 | inactive |
